Measurements from patent US20250145665A1, “MACROCYCLIC PEPTIDES USEFUL AS MODULATORS OF TNF ALPHA” (Bristol-Myers Squibb Company, priority 2023, published 2025).
Some entries share one result that the patent states for a list of compounds. Positions of bridges follow the written chain, without caps; N, C: chain ends. Non-standard residues stand in square brackets, D forms with d. Residues, ends and D or L forms follow the SMILES beside them. Pro(trans-4-Ph) = O=C(O)[C@@H]1C[C@@H](c2ccccc2)CN1; Ala(morpholin-4-yl) = N[C@@H](CN1CCOCC1)C(=O)O; Asp(3,3-Me2) = CC(C)(C(=O)O)[C@H](N)C(=O)O; Bip = N[C@@H](Cc1ccc(-c2ccccc2)cc1)C(=O)O; Val(3-OH) = CC(C)(O)[C@H](N)C(=O)O; 2Pal = N[C@@H](Cc1ccccn1)C(=O)O; 3Pal = N[C@@H](Cc1cccnc1)C(=O)O; d(αMeP) = C[C@]1(C(=O)O)CCCN1; Sar = CNCC(=O)O

The chains behind the UniProt entries cited, without tags or fusion partners. Residues count along the entry.
UniProt P01375, 77-233 limits assumed: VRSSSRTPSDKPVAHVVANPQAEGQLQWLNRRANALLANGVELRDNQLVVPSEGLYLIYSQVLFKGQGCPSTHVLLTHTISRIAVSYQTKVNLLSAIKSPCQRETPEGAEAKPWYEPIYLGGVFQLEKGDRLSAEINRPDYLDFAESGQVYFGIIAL

Target: TNFα (Homo sapiens, UniProt P01375)
Assay: TNF-Induced HEK-Blue Assay
Type: cell-based
Conditions: summary statement for all examples; read-out: IC50 values measured in the TNF induced HEK-Blue assay

IC50, ≤ 25 µM:
CC(C)C[C@@H]1NC(=O)[C@H](Cc2ccc(O)cc2)NC(=O)[C@H](C(C)C)NC(=O)[C@@H]2CCCN2C(=O)[C@H](C(C)C)NC(=O)[C@@H](CCCNC(=N)N)NC(=O)[C@H](CC(=O)O)NC(=O)[C@@H]2C[C@@H](c3ccccc3)CN2C(=O)CN(C)C(=O)[C@H](Cc2ccc(-c3ccccc3)cc2)NC(=O)[C@H](Cc2ccc(-c3ccccc3)cc2)NC(=O)[C@H](CN2CCOCC2)NC(=O)CSC[C@@H](C(=O)NCC(N)=O)NC1=O [Example 99] ({CH2CO}-[Ala(morpholin-4-yl)][Bip][Bip][Sar][Pro(trans-4-Ph)]D[dR]VPVYLCG-NH2; thioether N-13)
CC(C)C[C@@H]1NC(=O)[C@H](Cc2ccc(O)cc2)NC(=O)[C@H](C(C)C)NC(=O)[C@@H]2CCCN2C(=O)[C@H](C(C)C)NC(=O)[C@H](CCCNC(=N)N)NC(=O)[C@H](C(C)(C)C(=O)O)NC(=O)[C@H](Cc2ccc(O)cc2)NC(=O)CN(C)C(=O)[C@H](Cc2ccc(-c3ccccc3)cc2)NC(=O)[C@H](Cc2ccc(-c3ccccc3)cc2)NC(=O)[C@H](CN2CCOCC2)NC(=O)CSC[C@@H](C(=O)NCC(N)=O)NC1=O [Example 100] ({CH2CO}-[Ala(morpholin-4-yl)][Bip][Bip][Sar]Y[Asp(3,3-Me2)]RVPVYLCG-NH2; thioether N-13)
CC(C)C[C@@H]1NC(=O)[C@H](Cc2ccc(O)cc2)NC(=O)[C@H](C(C)C)NC(=O)[C@@H]2CCCN2C(=O)[C@H](C(C)C)NC(=O)[C@H](CCCNC(=N)N)NC(=O)[C@H](CC(=O)O)NC(=O)[C@@]2(C)CCCN2C(=O)CN(C)C(=O)[C@H](Cc2ccc(-c3ccccc3)cc2)NC(=O)[C@H](Cc2ccc(-c3ccccc3)cc2)NC(=O)[C@H](CN2CCOCC2)NC(=O)CSC[C@@H](C(=O)NCC(N)=O)NC1=O [Example 101] ({CH2CO}-[Ala(morpholin-4-yl)][Bip][Bip][Sar][d(αMeP)]DRVPVYLCG-NH2; thioether N-13)
CC(C)C[C@@H]1NC(=O)[C@H](Cc2ccc(O)cc2)NC(=O)[C@H](C(C)C)NC(=O)[C@@H]2CCCN2C(=O)[C@H](C(C)C)NC(=O)[C@@H](CCCNC(=N)N)NC(=O)[C@H](CC(=O)O)NC(=O)[C@@]2(C)CCCN2C(=O)CN(C)C(=O)[C@H](Cc2ccc(-c3ccccc3)cc2)NC(=O)[C@H](Cc2ccc(-c3ccccc3)cc2)NC(=O)[C@H](CN2CCOCC2)NC(=O)CSC[C@@H](C(=O)NCC(N)=O)NC1=O [Example 102] ({CH2CO}-[Ala(morpholin-4-yl)][Bip][Bip][Sar][d(αMeP)]D[dR]VPVYLCG-NH2; thioether N-13)
CC(C)C[C@@H]1NC(=O)[C@H](CCCNC(=N)N)NC(=O)[C@H](C(C)C)NC(=O)[C@@H]2CCCN2C(=O)[C@H](C(C)C)NC(=O)[C@@H](CCCNC(=N)N)NC(=O)[C@H](CC(=O)O)NC(=O)[C@@]2(C)CCCN2C(=O)CN(C)C(=O)[C@H](Cc2ccc(-c3ccccc3)cc2)NC(=O)[C@H](Cc2ccc(-c3ccccc3)cc2)NC(=O)[C@H](CN2CCOCC2)NC(=O)CSC[C@@H](C(=O)NCC(N)=O)NC1=O [Example 103] ({CH2CO}-[Ala(morpholin-4-yl)][Bip][Bip][Sar][d(αMeP)]D[dR]VPVRLCG-NH2; thioether N-13)
CC(C)C[C@@H]1NC(=O)[C@H](CCCNC(=N)N)NC(=O)[C@H](Cc2ccccc2)NC(=O)[C@@H]2CCCN2C(=O)[C@H](C(C)C)NC(=O)[C@@H](CCCNC(=N)N)NC(=O)[C@H](CC(=O)O)NC(=O)[C@@H]2CCCN2C(=O)CN(C)C(=O)[C@H](Cc2ccc(-c3ccccc3)cc2)NC(=O)[C@H](Cc2ccc(-c3ccccc3)cc2)NC(=O)[C@H](CN2CCOCC2)NC(=O)CSC[C@@H](C(=O)NCC(N)=O)NC1=O [Example 104] ({CH2CO}-[Ala(morpholin-4-yl)][Bip][Bip][Sar]PD[dR]VPFRLCG-NH2; thioether N-13)
CC(C)C[C@@H]1NC(=O)[C@H](Cc2ccc(O)cc2)NC(=O)[C@H](C(C)C)NC(=O)[C@H](Cc2cccnc2)NC(=O)[C@H](C(C)C)NC(=O)[C@H](CCCNC(=N)N)NC(=O)[C@H](CC(=O)O)NC(=O)[C@H](Cc2ccc(O)cc2)NC(=O)CN(C)C(=O)[C@H](Cc2ccc(-c3ccccc3)cc2)NC(=O)[C@H](Cc2ccc(-c3ccccc3)cc2)NC(=O)[C@H](C(C)(C)O)NC(=O)CSC[C@@H](C(=O)NCC(N)=O)NC1=O [Example 106] ({CH2CO}-[Val(3-OH)][Bip][Bip][Sar]YDRV[3Pal]VYLCG-NH2; thioether N-13)
CC(C)C[C@@H]1NC(=O)[C@H](Cc2ccc(O)cc2)NC(=O)[C@H](C(C)C)NC(=O)[C@H](Cc2cccnc2)NC(=O)[C@H](C(C)C)NC(=O)[C@H](CCCNC(=N)N)NC(=O)[C@H](CC(=O)O)NC(=O)[C@H](Cc2ccc(O)cc2)NC(=O)CN(C)C(=O)[C@H](Cc2ccc(-c3ccccc3)cc2)NC(=O)[C@H](Cc2ccc(-c3ccccc3)cc2)NC(=O)[C@H](CN2CCOCC2)NC(=O)CSC[C@@H](C(=O)NCC(N)=O)NC1=O [Example 107] ({CH2CO}-[Ala(morpholin-4-yl)][Bip][Bip][Sar]YDRV[3Pal]VYLCG-NH2; thioether N-13)
CC(C)C[C@@H]1NC(=O)[C@H](CCCNC(=N)N)NC(=O)[C@H](C(C)C)NC(=O)[C@H](Cc2ccccn2)NC(=O)[C@H](C(C)C)NC(=O)[C@H](CCCNC(=N)N)NC(=O)[C@H](CC(=O)O)NC(=O)[C@@H]2CCCN2C(=O)CN(C)C(=O)[C@H](Cc2ccc(-c3ccccc3)cc2)NC(=O)[C@H](Cc2ccc(-c3ccccc3)cc2)NC(=O)[C@H](C(C)(C)O)NC(=O)CSC[C@@H](C(=O)NCC(N)=O)NC1=O [Example 108] ({CH2CO}-[Val(3-OH)][Bip][Bip][Sar]PDRV[2Pal]VRLCG-NH2; thioether N-13)
CC(C)C[C@@H]1NC(=O)[C@H](Cc2ccc(O)cc2)NC(=O)[C@H](C(C)C)NC(=O)[C@H](Cc2ccccn2)NC(=O)[C@H](C(C)C)NC(=O)[C@H](CCCNC(=N)N)NC(=O)[C@H](CC(=O)O)NC(=O)[C@H](Cc2ccc(O)cc2)NC(=O)CN(C)C(=O)[C@H](Cc2ccc(-c3ccccc3)cc2)NC(=O)[C@H](Cc2ccc(-c3ccccc3)cc2)NC(=O)[C@H](CN2CCOCC2)NC(=O)CSC[C@@H](C(=O)NCC(N)=O)NC1=O [Example 109] ({CH2CO}-[Ala(morpholin-4-yl)][Bip][Bip][Sar]YDRV[2Pal]VYLCG-NH2; thioether N-13)
CC(C)C[C@@H]1NC(=O)[C@H](Cc2ccc(O)cc2)NC(=O)[C@H](C(C)C)NC(=O)[C@@H]2CCCN2C(=O)[C@H](Cc2ccc(O)cc2)NC(=O)[C@H](CCCNC(=N)N)NC(=O)[C@H](CC(=O)O)NC(=O)[C@H](Cc2ccc(O)cc2)NC(=O)CN(C)C(=O)[C@H](Cc2ccc(-c3ccccc3)cc2)NC(=O)[C@H](Cc2ccc(-c3ccccc3)cc2)NC(=O)[C@H](C(C)(C)O)NC(=O)CSC[C@@H](C(=O)NCC(N)=O)NC1=O [Example 110] ({CH2CO}-[Val(3-OH)][Bip][Bip][Sar]YDRYPVYLCG-NH2; thioether N-13)
CC(C)C[C@@H]1NC(=O)[C@H](Cc2ccc(O)cc2)NC(=O)[C@H](C(C)C)NC(=O)[C@@H]2CCCN2C(=O)[C@H](Cc2ccc(O)cc2)NC(=O)[C@H](CCCNC(=N)N)NC(=O)[C@H](CC(=O)O)NC(=O)[C@@H]2CCCN2C(=O)CN(C)C(=O)[C@H](Cc2ccc(-c3ccccc3)cc2)NC(=O)[C@H](Cc2ccc(-c3ccccc3)cc2)NC(=O)[C@H](C(C)(C)O)NC(=O)CSC[C@@H](C(=O)NCC(N)=O)NC1=O [Example 111] ({CH2CO}-[Val(3-OH)][Bip][Bip][Sar]PDRYPVYLCG-NH2; thioether N-13)
